No constants are given. Whether binding was seen depends on the method and setting. Binding seen in cells or lysates may run through a third protein. A yes stands for co-enrichment or nearness to the bait. Other partners may have been found. For some assays here: A no says only that the protein was not detected with the bait. For some assays here: Sequences can lack the tags named with a protein.

Amino acid sequences for entries named in this document (tags omitted).
UniProt Q08920: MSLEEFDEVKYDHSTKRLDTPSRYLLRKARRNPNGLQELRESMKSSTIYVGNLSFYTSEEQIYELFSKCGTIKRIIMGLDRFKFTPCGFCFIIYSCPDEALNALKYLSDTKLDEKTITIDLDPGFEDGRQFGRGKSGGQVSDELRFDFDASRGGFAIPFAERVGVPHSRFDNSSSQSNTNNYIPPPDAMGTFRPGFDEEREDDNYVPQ
UniProt P35189: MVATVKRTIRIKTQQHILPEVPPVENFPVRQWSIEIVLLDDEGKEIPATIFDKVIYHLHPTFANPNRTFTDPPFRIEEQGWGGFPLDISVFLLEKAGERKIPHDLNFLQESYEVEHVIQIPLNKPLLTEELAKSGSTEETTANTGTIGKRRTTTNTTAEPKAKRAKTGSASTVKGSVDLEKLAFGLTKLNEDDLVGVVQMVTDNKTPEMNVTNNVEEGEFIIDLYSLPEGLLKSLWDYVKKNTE
UniProt Q01159: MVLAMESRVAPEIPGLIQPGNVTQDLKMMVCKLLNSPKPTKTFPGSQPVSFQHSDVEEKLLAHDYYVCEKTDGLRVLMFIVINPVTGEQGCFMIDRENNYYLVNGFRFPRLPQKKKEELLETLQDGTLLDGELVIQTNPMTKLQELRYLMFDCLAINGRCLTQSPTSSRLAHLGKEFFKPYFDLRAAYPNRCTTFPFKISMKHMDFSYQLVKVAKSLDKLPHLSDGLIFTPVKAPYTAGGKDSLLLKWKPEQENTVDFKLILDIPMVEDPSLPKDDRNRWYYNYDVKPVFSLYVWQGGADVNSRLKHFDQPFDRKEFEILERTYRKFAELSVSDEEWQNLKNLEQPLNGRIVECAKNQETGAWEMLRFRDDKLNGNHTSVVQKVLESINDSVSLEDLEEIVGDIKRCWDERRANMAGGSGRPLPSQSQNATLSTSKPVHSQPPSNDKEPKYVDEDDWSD
UniProt Q05775: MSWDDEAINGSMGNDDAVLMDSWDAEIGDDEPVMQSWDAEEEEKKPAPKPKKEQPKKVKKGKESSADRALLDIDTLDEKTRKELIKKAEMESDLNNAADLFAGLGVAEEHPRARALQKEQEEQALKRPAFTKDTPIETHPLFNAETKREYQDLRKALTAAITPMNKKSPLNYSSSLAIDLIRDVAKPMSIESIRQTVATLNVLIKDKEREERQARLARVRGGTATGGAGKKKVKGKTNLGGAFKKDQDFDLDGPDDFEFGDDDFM

The record followed here is paper doi:10.1101/798603.

To fix the notation:
T1: Rpb4 E19-21Q, TAP-tagged (S. cerevisiae) (UniProt P20433)
T1 sequence: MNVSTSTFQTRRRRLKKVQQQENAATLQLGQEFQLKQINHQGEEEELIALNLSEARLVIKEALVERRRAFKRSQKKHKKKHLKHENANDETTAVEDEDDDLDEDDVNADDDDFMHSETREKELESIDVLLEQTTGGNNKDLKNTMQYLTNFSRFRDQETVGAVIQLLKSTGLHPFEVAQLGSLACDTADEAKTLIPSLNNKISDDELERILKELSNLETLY

T2: Rpb4-TAP (S. cerevisiae) (UniProt P20433)
T2 sequence: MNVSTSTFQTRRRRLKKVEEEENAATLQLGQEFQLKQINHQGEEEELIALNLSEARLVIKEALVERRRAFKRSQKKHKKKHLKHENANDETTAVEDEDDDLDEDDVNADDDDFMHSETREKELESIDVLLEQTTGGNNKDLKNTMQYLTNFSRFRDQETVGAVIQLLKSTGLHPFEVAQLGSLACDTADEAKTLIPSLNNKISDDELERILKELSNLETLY

B1: Tfg1 (protein, UniProt P41895 1-735)
chain: MSRRNPPGSRNGGGPTNASPFIKRDRMRRNFLRMRMGQNGSNSSSPGVPNGDNSRGSLVKKDDPEYAEEREKMLLQIGVEADAGRSNVKVKDEDPNEYNEFPLRAIPKEDLENMRTHLLKFQSKKKINPVTDFHLPVRLHRKDTRNLQFQLTRAEIVQRQKEISEYKKKAEQERSTPNSGGMNKSGTVSLNNTVKDGSQTPTVDSVTKDNTANGVNSSIPTVTGSSVPPASPTTVSAVESNGLSNGSTSAANGLDGNASTANLANGRPLVTKLEDAGPAEDPTKVGMVKYDGKEVTNEPEFEEGTMDPLADVAPDGGGRAKRGNLRRKTRQLKVLDENAKKLRFEEFYPWVMEDFDGYNTWVGSYEAGNSDSYVLLSVEDDGSFTMIPADKVYKFTARNKYATLTIDEAEKRMDKKSGEVPRWLMKHLDNIGTTTTRYDRTRRKLKAVADQQAMDEDDRDDNSEVELDYDEEFADDEEAPIIDGNEQENKESEQRIKKEMLQANAMGLRDEEAPSENEEDELFGEKKIDEDGERIKKALQKTELAALYSSDENEINPYLSESDIENKENESPVKKEEDSDTLSKSKRSSPKKQQKKATNAHVHKEPTLRVKSIKNCVIILKGDKKILKSFPEGEWNPQTTKAVDSSNNASNTVPSPIKQEEGLNSTVAEREETPAPTITEKDIIEAIGDGKVNIKEFGKFIRRKYPGAENKKLMFAIVKKLCRKVGNDHMELKKE
B2: Cet1 (enzyme, UniProt O13297 1-549)
chain: MSYTDNPPQTKRALSLDDLVNHDENEKVKLQKLSEAANGSRPFAENLESDINQTETGQAAPIDNYKESTGHGSHSQKPKSRKSSNDDEETDTDDEMGASGEINFDSEMDFDYDKQHRNLLSNGSPPMNDGSDANAKLEKPSDDSIHQNSKSDEEQRIPKQGNEGNIASNYITQVPLQKQKQTEKKIAGNAVGSVVKKEEEANAAVDNIFEEKATLQSKKNNIKRDLEVLNEISASSKPSKYRNVPIWAQKWKPTIKALQSINVKDLKIDPSFLNIIPDDDLTKSVQDWVYATIYSIAPELRSFIELEMKFGVIIDAKGPDRVNPPVSSQCVFTELDAHLTPNIDASLFKELSKYIRGISEVTENTGKFSIIESQTRDSVYRVGLSTQRPRFLRMSTDIKTGRVGQFIEKRHVAQLLLYSPKDSYDVKISLNLELPVPDNDPPEKYKSQSPISERTKDRVSYIHNDSCTRIDITKVENHNQNSKSRQSETTHEVELEINTPALLNAFDNITNDSKEYASLIRTFLNNGTIIRRKLSSLSYEIFEGSKKVM
B3: Rrp46 (protein, UniProt P53256 1-223)
chain: MSVQAEIGILDHVDGSSEFVSQDTKVICSVTGPIEPKARQELPTQLALEIIVRPAKGVATTREKVLEDKLRAVLTPLITRHCYPRQLCQITCQILESGEDEAEFSLRELSCCINAAFLALVDAGIALNSMCASIPIAIIKDTSDIIVDPTAEQLKISLSVHTLALEFVNGGKVVKNVLLLDSNGDFNEDQLFSLLELGEQKCQELVTNIRRIIQDNISPRLVV
B4: Nab3 (protein, UniProt P38996 1-802)
chain: MSDENHNSDVQDIPSPELSVDSNSNENELMNNSSADDGIEFDAPEEEREAEREEENEEQHELEDVNDEEEEDKEEKGEENGEVINTEEEEEEEHQQKGGNDDDDDDNEEEEEEEEDDDDDDDDDDDDEEEEEEEEEEGNDNSSVGSDSAAEDGEDEEDKKDKTKDKEVELRRETLEKEQKDVDEAIKKITREENDNTHFPTNMENVNYDLLQKQVKYIMDSNMLNLPQFQHLPQEEKMSAILAMLNSNSDTALSVPPHDSTISTTASASATSGARSNDQRKPPLSDAQRRMRFPRADLSKPITEEEHDRYAAYLHGENKITEMHNIPPKSRLFIGNLPLKNVSKEDLFRIFSPYGHIMQINIKNAFGFIQFDNPQSVRDAIECESQEMNFGKKLILEVSSSNARPQFDHGDHGTNSSSTFISSAKRPFQTESGDMYNDDNGAGYKKSRRHTVSCNIFVKRTADRTYAIEVFNRFRDGTGLETDMIFLKPRMELGKLINDAAYNGVWGVVLVNKTHNVDVQTFYKGSQGETKFDEYISISADDAVAIFNNIKNNRNNSRPTDYRAMSHQQNIYGAPPLPVPNGPAVGPPPQTNYYQGYSMPPPQQQQQQPYGNYGMPPPSHDQGYGSQPPIPMNQSYGRYQTSIPPPPPQQQIPQGYGRYQAGPPPQPPSQTPMDQQQLLSAIQNLPPNVVSNLLSMAQQQQQQPHAQQQLVGLIQSMQGQAPQQQQQQLGGYSSMNSSSPPPMSTNYNGQNISAKPSAPPMSHQPPPPQQQQQQQQQQQQQQQQPAGNNVQSLLDSLAKLQK
B5: Iwr1 (protein, UniProt Q07532 1-353)
chain: MSTISTTTAPEFIRVKRRRDEDSVQALLIDEGKRVKKQKFIFKLSKTVSSESYQSEQESSTPLLKLAHEDHRHFVLEQRKKSRRDSDDEKSQQRLAAEGSTVDDDGLPPEINQMVNDYLKLNKGVEKTERKKPSRKYFTGDSAKIASLPSLDYVFDIYHLEKIHDDEVARYNNEKNIGFVKIIEHIDLALDEESDPNEARSDDEDSNDENYYQNDYPEDEDDDRSILFGSEGEDIAALGEEIVIGVNKSRFSSWNDDKIQGSNGYHDVEEEYGDLFNRLGGKSDVLKSINSSNFIDLDGQEGEIEISDNEDDSDEGDDIEYPRNEFFPTDVDDPLAHHRDRIFHQLQKKINRS
B6: Sua7 (protein, UniProt P29055 1-345)
chain: MMTRESIDKRAGRRGPNLNIVLTCPECKVYPPKIVERFSEGDVVCALCGLVLSDKLVDTRSEWRTFSNDDHNGDDPSRVGEASNPLLDGNNLSTRIGKGETTDMRFTKELNKAQGKNVMDKKDNEVQAAFAKITMLCDAAELPKIVKDCAKEAYKLCHDEKTLKGKSMESIMAASILIGCRRAEVARTFKEIQSLIHVKTKEFGKTLNIMKNILRGKSEDGFLKIDTDNMSGAQNLTYIPRFCSHLGLPMQVTTSAEYTAKKCKEIKEIAGKSPITIAVVSIYLNILLFQIPITAAKVGQTLQVTEGTIKSGYKILYEHRDKLVDPQLIANGVVSLDNLPGVEKK
B7: Lsm2 (protein, UniProt P38203 1-95)
chain: MLFFSFFKTLVDQEVVVELKNDIEIKGTLQSVDQFLNLKLDNISCTDEKKYPHLGSVRNIFIRGSTVRYVYLNKNMVDTNLLQDATRREVMTERK
B8: Dst1 (TFIIS) (protein, UniProt P07273 1-309)
chain: MDSKEVLVHVKNLEKNKSNDAAVLEILHVLDKEFVPTEKLLRETKVGVEVNKFKKSTNVEISKLVKKMISSWKDAINKNKRSRQAQQHHQDHAPGNAEDKTTVGESVNGVQQPASSQSDAMKQDKYVSTKPRNSKNDGVDTAIYHHKLRDQVLKALYDVLAKESEHPPQSILHTAKAIESEMNKVNNCDTNEAAYKARYRIIYSNVISKNNPDLKHKIANGDITPEFLATCDAKDLAPAPLKQKIEEIAKQNLYNAQGATIERSVTDRFTCGKCKEKKVSYYQLQTRSADEPLTTFCTCEACGNRWKFS
B9: Tfg2 (protein, UniProt P41896 1-400)
chain: MSSGSAGAPALSNNSTNSVAKEKSGNISGDEYLSQEEEVFDGNDIENNETKVYEESLDLDLERSNRQVWLVRLPMFLAEKWRDRNNLHGQELGKIRINKDGSKITLLLNENDNDSIPHEYDLELTKKVVENEYVFTEQNLKKYQQRKKELEADPEKQRQAYLKKQEREEELKKKQQQQKRRNNRKKFNHRVMTDRDGRDRYIPYVKTIPKKTAIVGTVCHECQVMPSMNDPNYHKIVEQRRNIVKLNNKERITTLDETVGVTMSHTGMSMRSDNSNFLKVGREKAKSNIKSIRMPKKEILDYLFKLFDEYDYWSLKGLKERTRQPEAHLKECLDKVATLVKKGPYAFKYTLRPEYKKLKEEERKATLGELADEQTGSAGDNAQGDAEADLEDEIEMEDVV

One experiment concerns the target T1, Rpb4 E19-21Q, TAP-tagged (S. cerevisiae). As to the kind of experiment: affinity purification with mass spectrometry.
In the case of Cbc2 (from UniProt Q08920 1-208), the binding entry is “binds”.

Another experiment addresses T2, Rpb4-TAP (S. cerevisiae). The experiment can be described thus: affinity purification with mass spectrometry.
Turning to Taf14 (from UniProt P35189 1-244), the binding entry was “binds”.
With Cbc2 (from UniProt Q08920 1-208), the binding entry is “binds”.
For “Ceg1 (from UniProt Q01159 1-459) (enzyme)”, the binding entry is given as “binds”.
The same measure, in the same setting: the entry for Hcr1 (from UniProt Q05775 1-265) is “no binding”.
Same read-out and setting: for B1 the value was “binds”.
B2: the binding entry is “binds”.
The same measure, in the same setting: for B3 the value was “binds”.
Still for that read-out and setting: for B4 the value was “binds”.
Still for that read-out and setting: for B5 the value was “binds”; for B6, “binds”.
As to B7, the binding entry is on record as “no binding”.
The same measure, in the same setting: for B8 the value was “binds”; for B9, “binds”.
